The results in this text go back to the supplement of paper PMC10849652.

Chains of the proteins cited; added tags and fusions are not shown. Lines headed by an entry give the natural chain unless they say otherwise; changes in a name come on top.
UniProt P14625, whole entry, looked up: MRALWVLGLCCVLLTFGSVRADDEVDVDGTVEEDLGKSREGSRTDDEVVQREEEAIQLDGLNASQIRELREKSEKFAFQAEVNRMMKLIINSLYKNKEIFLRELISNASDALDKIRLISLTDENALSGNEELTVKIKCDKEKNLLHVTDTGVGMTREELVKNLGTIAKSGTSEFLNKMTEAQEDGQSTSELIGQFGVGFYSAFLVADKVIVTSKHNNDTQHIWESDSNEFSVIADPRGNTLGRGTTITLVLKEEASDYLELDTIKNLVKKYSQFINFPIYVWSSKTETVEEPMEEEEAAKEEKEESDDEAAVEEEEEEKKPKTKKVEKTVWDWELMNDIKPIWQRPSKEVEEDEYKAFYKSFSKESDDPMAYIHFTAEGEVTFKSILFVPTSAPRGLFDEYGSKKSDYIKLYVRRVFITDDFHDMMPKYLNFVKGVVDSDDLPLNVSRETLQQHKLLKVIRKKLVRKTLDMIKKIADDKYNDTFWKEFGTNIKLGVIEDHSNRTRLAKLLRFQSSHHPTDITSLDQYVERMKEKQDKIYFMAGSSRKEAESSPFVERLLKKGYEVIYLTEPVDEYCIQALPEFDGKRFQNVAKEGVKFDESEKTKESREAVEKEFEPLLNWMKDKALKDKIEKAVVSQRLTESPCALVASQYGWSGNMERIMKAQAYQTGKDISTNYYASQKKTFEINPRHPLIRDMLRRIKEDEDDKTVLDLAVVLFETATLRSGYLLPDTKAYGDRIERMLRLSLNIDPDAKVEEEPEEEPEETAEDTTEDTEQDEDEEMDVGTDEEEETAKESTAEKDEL
UniProt Q14527: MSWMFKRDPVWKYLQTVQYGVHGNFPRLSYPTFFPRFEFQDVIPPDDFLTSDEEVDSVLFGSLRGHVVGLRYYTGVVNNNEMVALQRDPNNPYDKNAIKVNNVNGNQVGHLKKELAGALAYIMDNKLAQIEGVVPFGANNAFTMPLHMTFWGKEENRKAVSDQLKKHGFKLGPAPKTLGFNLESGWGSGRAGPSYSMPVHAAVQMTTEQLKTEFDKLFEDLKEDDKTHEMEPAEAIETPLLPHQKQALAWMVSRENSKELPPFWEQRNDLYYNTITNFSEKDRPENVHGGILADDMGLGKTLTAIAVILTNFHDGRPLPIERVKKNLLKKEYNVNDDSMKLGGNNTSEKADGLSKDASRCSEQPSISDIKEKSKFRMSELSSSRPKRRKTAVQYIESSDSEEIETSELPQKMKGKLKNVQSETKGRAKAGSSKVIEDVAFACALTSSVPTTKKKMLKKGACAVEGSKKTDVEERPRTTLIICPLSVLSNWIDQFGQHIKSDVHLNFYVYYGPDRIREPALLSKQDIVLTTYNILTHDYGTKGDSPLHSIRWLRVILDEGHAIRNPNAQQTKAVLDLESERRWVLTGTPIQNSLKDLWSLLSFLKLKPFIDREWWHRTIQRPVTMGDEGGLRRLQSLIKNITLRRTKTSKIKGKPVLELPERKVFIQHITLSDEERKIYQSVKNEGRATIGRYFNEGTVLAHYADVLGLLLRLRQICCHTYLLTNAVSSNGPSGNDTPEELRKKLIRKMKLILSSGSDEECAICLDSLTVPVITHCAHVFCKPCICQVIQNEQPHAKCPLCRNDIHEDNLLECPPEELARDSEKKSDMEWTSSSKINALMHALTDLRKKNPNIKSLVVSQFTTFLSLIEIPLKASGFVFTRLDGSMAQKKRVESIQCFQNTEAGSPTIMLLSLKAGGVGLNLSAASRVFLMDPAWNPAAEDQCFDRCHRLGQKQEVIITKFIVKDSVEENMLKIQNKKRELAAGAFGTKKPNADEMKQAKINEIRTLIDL
UniProt O75330: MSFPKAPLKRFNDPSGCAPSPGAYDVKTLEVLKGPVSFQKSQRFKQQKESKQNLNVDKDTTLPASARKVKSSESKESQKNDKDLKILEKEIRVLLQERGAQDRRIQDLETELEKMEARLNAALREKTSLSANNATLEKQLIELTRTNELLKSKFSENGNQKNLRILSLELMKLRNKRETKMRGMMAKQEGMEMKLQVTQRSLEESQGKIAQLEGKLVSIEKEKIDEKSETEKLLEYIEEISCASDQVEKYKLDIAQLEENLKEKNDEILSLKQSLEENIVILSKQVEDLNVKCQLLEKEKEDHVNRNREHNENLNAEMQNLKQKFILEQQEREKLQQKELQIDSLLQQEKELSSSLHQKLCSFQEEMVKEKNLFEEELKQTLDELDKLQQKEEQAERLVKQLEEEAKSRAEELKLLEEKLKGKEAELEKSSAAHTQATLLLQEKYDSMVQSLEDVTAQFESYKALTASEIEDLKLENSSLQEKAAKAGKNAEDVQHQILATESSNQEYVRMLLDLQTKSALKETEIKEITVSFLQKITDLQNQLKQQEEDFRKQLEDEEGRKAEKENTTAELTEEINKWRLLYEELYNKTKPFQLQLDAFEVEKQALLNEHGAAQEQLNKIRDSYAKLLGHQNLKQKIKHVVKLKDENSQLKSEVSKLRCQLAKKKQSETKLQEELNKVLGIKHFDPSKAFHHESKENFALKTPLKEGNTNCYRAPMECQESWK
UniProt Q14103: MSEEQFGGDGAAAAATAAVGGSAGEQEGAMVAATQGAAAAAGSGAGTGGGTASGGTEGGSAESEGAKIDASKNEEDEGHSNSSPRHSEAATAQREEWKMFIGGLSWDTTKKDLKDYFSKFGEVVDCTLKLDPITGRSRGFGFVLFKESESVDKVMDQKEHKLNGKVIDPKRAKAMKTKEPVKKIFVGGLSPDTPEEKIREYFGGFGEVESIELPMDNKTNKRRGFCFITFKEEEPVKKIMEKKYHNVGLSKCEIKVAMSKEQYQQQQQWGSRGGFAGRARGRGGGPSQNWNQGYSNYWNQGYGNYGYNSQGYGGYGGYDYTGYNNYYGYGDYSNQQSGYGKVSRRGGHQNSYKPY
UniProt Q92506: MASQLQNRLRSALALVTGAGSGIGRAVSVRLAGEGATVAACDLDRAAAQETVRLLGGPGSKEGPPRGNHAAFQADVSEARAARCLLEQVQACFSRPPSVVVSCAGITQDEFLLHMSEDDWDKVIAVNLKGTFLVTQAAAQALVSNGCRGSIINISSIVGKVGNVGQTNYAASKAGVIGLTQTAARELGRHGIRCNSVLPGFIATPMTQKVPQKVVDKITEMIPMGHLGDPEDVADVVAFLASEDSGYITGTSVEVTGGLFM
UniProt Q6NVY1: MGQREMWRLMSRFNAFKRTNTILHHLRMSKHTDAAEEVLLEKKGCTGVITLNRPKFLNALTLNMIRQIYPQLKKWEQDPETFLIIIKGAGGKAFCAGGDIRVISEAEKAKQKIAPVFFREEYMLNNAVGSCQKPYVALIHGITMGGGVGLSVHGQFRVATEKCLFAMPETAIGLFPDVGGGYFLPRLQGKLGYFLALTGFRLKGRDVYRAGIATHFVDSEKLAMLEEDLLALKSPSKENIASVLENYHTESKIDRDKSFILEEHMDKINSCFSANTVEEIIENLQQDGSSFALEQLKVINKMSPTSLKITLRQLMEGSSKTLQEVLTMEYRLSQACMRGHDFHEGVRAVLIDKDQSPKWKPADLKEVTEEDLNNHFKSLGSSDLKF
UniProt P0DMV8, whole entry, looked up: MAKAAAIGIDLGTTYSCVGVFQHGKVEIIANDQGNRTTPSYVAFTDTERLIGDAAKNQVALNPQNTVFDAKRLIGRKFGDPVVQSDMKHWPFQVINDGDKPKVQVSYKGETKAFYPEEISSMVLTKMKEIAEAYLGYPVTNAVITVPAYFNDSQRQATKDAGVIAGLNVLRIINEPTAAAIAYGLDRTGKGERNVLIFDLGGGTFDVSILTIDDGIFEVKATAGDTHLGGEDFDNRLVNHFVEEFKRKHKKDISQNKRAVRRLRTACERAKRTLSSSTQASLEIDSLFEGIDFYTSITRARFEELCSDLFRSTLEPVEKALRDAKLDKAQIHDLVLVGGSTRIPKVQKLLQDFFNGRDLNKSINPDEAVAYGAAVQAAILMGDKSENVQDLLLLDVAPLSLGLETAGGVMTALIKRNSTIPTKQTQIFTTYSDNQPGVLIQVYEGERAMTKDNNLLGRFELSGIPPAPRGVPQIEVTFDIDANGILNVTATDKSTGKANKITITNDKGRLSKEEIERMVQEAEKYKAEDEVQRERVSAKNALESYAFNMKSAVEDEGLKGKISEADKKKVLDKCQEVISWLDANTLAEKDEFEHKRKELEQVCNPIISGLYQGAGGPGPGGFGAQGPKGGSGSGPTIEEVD
UniProt Q8TCT9: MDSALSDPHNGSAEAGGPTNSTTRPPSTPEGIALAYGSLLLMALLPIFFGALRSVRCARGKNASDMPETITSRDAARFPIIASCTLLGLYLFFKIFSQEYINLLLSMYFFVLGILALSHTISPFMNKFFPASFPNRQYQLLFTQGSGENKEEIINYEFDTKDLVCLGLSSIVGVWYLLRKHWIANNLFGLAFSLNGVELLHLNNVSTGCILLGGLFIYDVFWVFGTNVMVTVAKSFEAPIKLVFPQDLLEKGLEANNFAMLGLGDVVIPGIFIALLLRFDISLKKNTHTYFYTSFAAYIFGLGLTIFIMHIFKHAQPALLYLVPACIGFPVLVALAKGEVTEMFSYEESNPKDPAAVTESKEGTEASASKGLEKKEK
UniProt P51659: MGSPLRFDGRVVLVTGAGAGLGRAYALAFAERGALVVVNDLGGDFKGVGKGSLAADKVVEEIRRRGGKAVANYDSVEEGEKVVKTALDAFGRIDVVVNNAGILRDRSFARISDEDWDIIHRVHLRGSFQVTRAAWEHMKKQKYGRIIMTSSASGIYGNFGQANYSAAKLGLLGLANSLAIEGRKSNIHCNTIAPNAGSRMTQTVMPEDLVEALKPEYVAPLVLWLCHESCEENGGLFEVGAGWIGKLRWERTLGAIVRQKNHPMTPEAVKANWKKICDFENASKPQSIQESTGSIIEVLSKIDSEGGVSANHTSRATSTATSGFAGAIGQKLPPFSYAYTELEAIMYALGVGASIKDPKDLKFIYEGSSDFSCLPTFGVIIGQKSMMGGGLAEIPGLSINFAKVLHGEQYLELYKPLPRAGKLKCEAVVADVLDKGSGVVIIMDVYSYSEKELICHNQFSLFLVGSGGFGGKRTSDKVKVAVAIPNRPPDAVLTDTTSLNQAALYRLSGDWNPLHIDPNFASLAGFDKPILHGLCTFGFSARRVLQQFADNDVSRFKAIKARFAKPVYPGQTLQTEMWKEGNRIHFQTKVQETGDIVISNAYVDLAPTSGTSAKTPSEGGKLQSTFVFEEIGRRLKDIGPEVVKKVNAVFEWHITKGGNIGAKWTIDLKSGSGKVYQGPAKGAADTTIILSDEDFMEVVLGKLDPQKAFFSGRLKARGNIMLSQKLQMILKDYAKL
UniProt Q9Y5Z4: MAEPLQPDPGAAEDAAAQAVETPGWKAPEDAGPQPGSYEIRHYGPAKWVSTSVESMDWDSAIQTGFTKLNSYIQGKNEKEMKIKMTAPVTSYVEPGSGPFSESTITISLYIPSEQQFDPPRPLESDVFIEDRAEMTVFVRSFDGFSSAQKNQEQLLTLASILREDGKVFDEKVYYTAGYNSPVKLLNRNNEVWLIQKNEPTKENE
UniProt Q8WVV9: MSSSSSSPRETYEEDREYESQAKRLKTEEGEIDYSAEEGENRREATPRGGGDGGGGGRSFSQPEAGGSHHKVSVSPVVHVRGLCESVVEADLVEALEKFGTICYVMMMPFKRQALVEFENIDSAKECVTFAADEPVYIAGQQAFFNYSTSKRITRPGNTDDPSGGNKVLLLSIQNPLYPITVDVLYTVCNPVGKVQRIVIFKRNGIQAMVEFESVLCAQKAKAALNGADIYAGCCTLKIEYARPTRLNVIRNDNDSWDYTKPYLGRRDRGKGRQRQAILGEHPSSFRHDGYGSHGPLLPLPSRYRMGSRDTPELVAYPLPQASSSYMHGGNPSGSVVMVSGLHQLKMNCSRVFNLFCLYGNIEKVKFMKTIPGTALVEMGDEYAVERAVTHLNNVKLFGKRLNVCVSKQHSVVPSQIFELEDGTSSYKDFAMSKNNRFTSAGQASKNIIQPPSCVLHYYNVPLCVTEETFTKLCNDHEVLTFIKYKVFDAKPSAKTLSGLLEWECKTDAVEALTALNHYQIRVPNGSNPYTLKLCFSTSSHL

Holding throughout (test): log2 fold change, soluble protein after heating vs DMSO (PISA); higher = thermal stabilisation; K562 lysate, 10 uM; active = over 0.2 and 3.5 SD of the protein, either way, in both replicates (recomputed)
Compound in one assay: CCCS(=O)(=O)Nc1ccc(F)c(C(=O)c2c[nH]c3ncc(-c4ccc(Cl)cc4)cc23)c1F [vemurafenib]
The procedure, abridged:
(§1)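 Soluble protein was defined as the supernatant remaining after 21,000xg for 90 min, following pooling of heated aliquots and adjustment to 0.5% NP-40 at 4°C. Before that, crude K562 extract at 1 mg/mL protein in PBS pH 7.4 with 1 mM MgCl2 was treated with 10 μM compound for 30 min and heated for 3 min across 48°C-58°C. Quantification used TMTpro 16plex LC-MS/MS with channel sums equalised, and values are log-two fold changes in thermal stability relative to solvent controls from duplicates.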

Compound in assay [1]: CCCS(=O)(=O)Nc1ccc(F)c(C(=O)c2c[nH]c3ncc(Cl)cc23)c1F
An outline of the steps: as §1

Compound in a further assay: CCN(CCCOc1ccc2c(Nc3cc(CC(=O)Nc4cccc(F)c4)[nH]n3)ncnc2c1)CCOP(=O)(O)O [barasertib]
An outline of the steps:
as §1

Compound in assay [2]: CC[C@@H]1C(=O)N(C)c2cnc(Nc3ccc(C(=O)NC4CCN(C)CC4)cc3OC)nc2N1C1CCCC1
An outline of the steps: as §1

Compound in a further assay: CC[C@@H]1C(=O)N(C)c2cnc(Nc3ccc(C(=O)N[C@H]4CC[C@H](N5CCN(CC6CC6)CC5)CC4)cc3OC)nc2N1C(C)C [volasertib]
The procedure, abridged:
as §1

Compound in assay [3]: CCn1c(C(=O)N(C2CC2)C2CC2)cc2c3c(ncn3C)c(Nc3cc(C)n(C)n3)nc21
The procedure, abridged:
as §1

Compound in assay [4]: CCn1cc(-c2ccnc3[nH]c(-c4cccc(CN(C)C)c4)cc23)c(-c2ccc(NC(=O)N(C)C)cc2)n1
An outline of the steps:
as §1

Compound in assay [5]: CN1CCC(CNc2ccc3ncc(-c4cccc(OC(F)(F)F)c4)n3n2)CC1
An outline of the steps: as §1

Compound in another assay: CN1CCN(CCOc2cc(OC3CCOCC3)c3c(Nc4c(Cl)ccc5c4OCO5)ncnc3c2)CC1 [saracatinib]
The procedure, abridged: as §1

Compound in another assay: CN1CCN(c2nc(C3=C(c4c[nH]c5ccccc45)C(=O)NC3=O)c3ccccc3n2)CC1 [sotrastaurin]
An outline of the steps:
as §1

The list shows a part of the results.

As to HSP90B1 (UniProt P14625), the log2 fold change is inactive: 0 with vemurafenib; inactive: -0.01 in assay [1]; inactive: -0.016 with barasertib; inactive: 0.007 in [2]; inactive: 0.014 in the assay with volasertib; inactive: -0.006 in [3]. Further, the log2 fold change was inactive: 0.042 in assay [4], inactive: -0.017 in [5], inactive: -0.003 with saracatinib and inactive: -0.022 in the assay with sotrastaurin.
As to HLTF (UniProt Q14527), the log2 fold change with vemurafenib is inactive: -0.008; in assay [1] it was inactive: -0.044; in the assay with barasertib, inactive: 0.077; in assay [2], inactive: -0.002; with volasertib it was inactive: -0.043; in assay [3] it was inactive: 0.028. The log2 fold change was inactive: -0.024 in assay [4], inactive: 0.073 in [5], inactive: 0.004 in the assay with saracatinib and inactive: 0.017 with sotrastaurin.
Take HMMR isoform 3 (UniProt O75330): the log2 fold change in the assay with vemurafenib was inactive: -0.01; in [1] it was inactive: 0.003; with barasertib, inactive: 0.005; in assay [2] it was inactive: 0.035; in the assay with volasertib, inactive: -0.001; in assay [3], inactive: -0.008. Besides, the log2 fold change in assay [4] was inactive: 0.003; in assay [5], inactive: -0.021; with saracatinib, inactive: 0.008; with sotrastaurin it was inactive: 0.027.
Consider HNRNPD isoform 2 (UniProt Q14103), for which the log2 fold change is inactive: 0.011 in the assay with vemurafenib; inactive: 0.002 in assay [1]; inactive: -0.052 with barasertib; inactive: 0.022 in assay [2]; inactive: 0.029 in the assay with volasertib; inactive: -0.036 in assay [3]. Also, the log2 fold change is active: 0.857 in assay [4], inactive: -0.135 in assay [5], inactive: 0 in the assay with saracatinib and inactive: -0.08 with sotrastaurin.
As to HMGN2 (UniProt P05204), the log2 fold change was inactive: 0.024 in the assay with vemurafenib; inactive: -0.015 in assay [1]; inactive: -0.037 in the assay with barasertib; inactive: 0.036 in assay [2]; inactive: 0.023 with volasertib; inactive: -0.033 in assay [3]. Also, the log2 fold change in assay [4] was inactive: 0.07; in assay [5], inactive: -0.007; with saracatinib it was inactive: -0.016; in the assay with sotrastaurin, inactive: 0.061.
As to HSD17B8 (UniProt Q92506), the log2 fold change was inactive: -0.024 in the assay with vemurafenib; inactive: -0.014 in [1]; inactive: -0.054 in the assay with barasertib; inactive: -0.074 in assay [2]; inactive: 0.059 with volasertib; inactive: 0.012 in assay [3]. Further, the log2 fold change in [4] is inactive: -0.121; in assay [5] it was inactive: 0.038; with saracatinib, inactive: 0.003; with sotrastaurin it was inactive: 0.039.
Regarding HIBCH (UniProt Q6NVY1), the log2 fold change with vemurafenib was inactive: 0.026; in assay [1] it was inactive: -0.015; in the assay with barasertib it was inactive: 0.028; in assay [2] it was inactive: -0.028; in the assay with volasertib, inactive: 0.002; in [3], inactive: -0.013. The log2 fold change in [4] is inactive: 0.087; in assay [5], inactive: -0.036; in the assay with saracatinib it was inactive: -0.031; in the assay with sotrastaurin, inactive: 0.03.
As for HSPA1A (UniProt P0DMV8), the log2 fold change in the assay with vemurafenib was inactive: -0.023; in assay [1], inactive: -0.003; with barasertib, inactive: -0.035; in [2], inactive: 0.016; with volasertib, inactive: -0.024; in [3] it was inactive: -0.02. In addition, the log2 fold change in assay [4] is inactive: 0.209; in assay [5], inactive: -0.067; with saracatinib, inactive: 0.004; in the assay with sotrastaurin, inactive: 0.019.
For the target HM13 (UniProt Q8TCT9), the log2 fold change in the assay with vemurafenib is inactive: 0.019; in assay [1], inactive: 0.015; with barasertib, inactive: 0.119; in assay [2] it was inactive: 0.079; with volasertib, inactive: 0.078; in assay [3], inactive: -0.028. For the same target, the log2 fold change is inactive: 0.494 in assay [4], inactive: -0.071 in [5], inactive: 0.081 with saracatinib and inactive: -0.017 with sotrastaurin.
Turning to HSD17B4 (UniProt P51659), the log2 fold change with vemurafenib is inactive: -0.001; in assay [1] it was inactive: 0.014; with barasertib it was inactive: 0.005; in assay [2], inactive: 0.028; with volasertib, inactive: -0.023; in [3], inactive: 0.004. The log2 fold change in assay [4] is inactive: -0.015; in assay [5], inactive: 0.029; in the assay with saracatinib it was inactive: -0.026; in the assay with sotrastaurin, inactive: -0.024.
Regarding HEBP2 (UniProt Q9Y5Z4), the log2 fold change is inactive: -0.015 with vemurafenib; inactive: -0.025 in [1]; inactive: 0.091 with barasertib; inactive: 0.038 in assay [2]; inactive: 0.037 with volasertib; inactive: 0.001 in assay [3]. Besides, the log2 fold change in [4] is inactive: -0.047; in assay [5], inactive: 0.025; in the assay with saracatinib it was inactive: -0.016; with sotrastaurin, inactive: -0.014.
As to HNRNPLL (UniProt Q8WVV9), the log2 fold change is inactive: 0.004 in the assay with vemurafenib; inactive: 0.046 in assay [1]; inactive: 0.018 in the assay with barasertib; inactive: 0.008 in assay [2]; inactive: -0.027 with volasertib; inactive: -0.004 in assay [3]. The log2 fold change was inactive: -0.006 in [4], inactive: -0.013 in assay [5], inactive: -0.001 with saracatinib and inactive: 0.034 with sotrastaurin.
